Data as given in patent US20210269522A1.
No constants are given. Whether binding was seen depends on the method and setting. Some results given as binding are weak or reduced against the parent protein; the word gives no strength.

Sequences of proteins named here, by UniProt entry; tags and fusion partners are left off. A change or cut given only in a name is not applied to a line headed by its entry.
UniProt Q08722: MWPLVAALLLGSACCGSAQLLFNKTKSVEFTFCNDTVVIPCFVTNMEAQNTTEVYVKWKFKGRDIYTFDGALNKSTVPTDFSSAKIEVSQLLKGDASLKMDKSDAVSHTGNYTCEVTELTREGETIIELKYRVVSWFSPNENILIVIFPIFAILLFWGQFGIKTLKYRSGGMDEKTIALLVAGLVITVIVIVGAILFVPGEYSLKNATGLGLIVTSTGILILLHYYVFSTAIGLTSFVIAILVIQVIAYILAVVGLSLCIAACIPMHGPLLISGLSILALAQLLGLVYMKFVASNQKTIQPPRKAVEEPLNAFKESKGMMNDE

Tests used:
[1] = target: human CD47 on Raji cells (human) (UniProt Q08722); experiment: flow cytometry, figure legend of FIG. 21
human CD47-ECD (human) = human CD47-ECD (human) (UniProt Q08722); experiment: ELISA, figure legend of FIG. 20
[2] = target: CD47 on human red blood cells (human) (UniProt Q08722); experiment: RBC binding assay, figure legend of FIG. 25
[3] = target: CD47 on human red blood cells (human) (UniProt Q08722); experiment: RBC binding assay (FIG. 25)

Measured: binding

B1: CD47 antibody 34C5 (antibody, V domains shown)
VH: QVQLVQSGAEVKKPGSSVKVSCKASGYTFSSYYMHWVRQAPGQGLEWMGEINPNNARINFNEKFKTRVTLTVDKSTSTAYMELSSLRSEDTAVYYCTRGYYRYGAWFGYWGQGTLVTVSS
VL: DIQMTQSPSSLSASVGDRVTITCRASQDISDYLNWYQQKPGKAPKLLIYYISRLHSGVPSRFSGSGSGTDYTLTISSLQPEDFATYYCQQGHTLPWTFGGGTKVEIK
binds: [1] | human CD47-ECD (human) | [2] | [3]
